Data published in publication PMC7890835.
Results are given in words; binding and its absence hold for the method and conditions named. In cells and extracts the contact can be indirect. Some results given as binding are weak or reduced against the parent protein; the word gives no strength. For part of these data: Sequences can lack the tags named with a protein.

Key:
[1] = target: T1, RNF152 (endogenous) (human (endogenous in HuH6)) (UniProt Q8N8N0); assay: co-IP; lysates of MG132-treated HuH6 cells, immunoprecipitated with IgG or anti-RNF152 antibody, immunoblot; endogenous proteins
T1 sequence: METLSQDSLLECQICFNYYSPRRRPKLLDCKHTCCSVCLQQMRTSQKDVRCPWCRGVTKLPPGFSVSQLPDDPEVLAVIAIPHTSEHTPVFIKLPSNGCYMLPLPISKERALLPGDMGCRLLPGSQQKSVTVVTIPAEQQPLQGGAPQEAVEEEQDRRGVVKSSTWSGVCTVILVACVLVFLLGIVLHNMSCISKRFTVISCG

[2] = target: T2, Flag-RNF152 (human (cDNA from 293 T or HepG2 cells)) (UniProt Q8N8N0); assay: co-IP; lysates of 293 T cells transfected with Flag-RNF152 for 36 h, immunoprecipitated with Flag M2 beads, immunoblot with anti-Flag or anti-TSPAN12; IP buffer 100 mM NaCl, 20 mM Tris-Cl pH 8.0, 0.5 mM EDTA, 0.5% NP-40
T2 sequence: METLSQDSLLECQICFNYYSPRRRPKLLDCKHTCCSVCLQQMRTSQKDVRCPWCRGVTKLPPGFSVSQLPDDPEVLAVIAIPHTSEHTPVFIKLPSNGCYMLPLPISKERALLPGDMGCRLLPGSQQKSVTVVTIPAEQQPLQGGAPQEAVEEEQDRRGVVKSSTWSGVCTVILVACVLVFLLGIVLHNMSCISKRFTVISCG

[3] = target: T3, GST-RNF152 (human (cDNA from 293 T or HepG2 cells)) (UniProt Q8N8N0); assay: pull-down; lysate of 293 T cells transfected with Flag-tagged TSPAN12 incubated with GST alone or GST-RNF152 immobilized on GST-Sepharose beads; bound proteins detected by immunoblot; only the target purified
T3 sequence: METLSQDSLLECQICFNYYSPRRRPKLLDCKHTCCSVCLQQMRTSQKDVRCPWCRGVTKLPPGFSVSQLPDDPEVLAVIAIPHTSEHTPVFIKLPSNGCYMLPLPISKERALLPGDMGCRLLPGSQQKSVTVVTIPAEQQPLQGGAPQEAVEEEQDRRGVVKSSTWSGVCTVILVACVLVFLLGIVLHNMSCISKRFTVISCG

B1: TSPAN12 (endogenous) (protein, UniProt O95859 1-305)
chain: MAREDSVKCLRCLLYALNLLFWLMSISVLAVSAWMRDYLNNVLTLTAETRVEEAVILTYFPVVHPVMIAVCCFLIIVGMLGYCGTVKRNLLLLAWYFGSLLVIFCVELACGVWTYEQELMVPVQWSDMVTLKARMTNYGLPRYRWLTHAWNFFQREFKCCGVVYFTDWLEMTEMDWPPDSCCVREFPGCSKQAHQEDLSDLYQEGCGKKMYSFLRGTKQLQVLRFLGISIGVTQILAMILTITLLWALYYDRREPGTDQMMSLKNDNSQHLSCPSVELLKPSLSRIFEHTSMANSFNTHFEMEEL
- binding [1]: binds
- binding [2]: binds

B2: Flag-tagged TSPAN12 (protein, UniProt O95859 1-305)
chain: MAREDSVKCLRCLLYALNLLFWLMSISVLAVSAWMRDYLNNVLTLTAETRVEEAVILTYFPVVHPVMIAVCCFLIIVGMLGYCGTVKRNLLLLAWYFGSLLVIFCVELACGVWTYEQELMVPVQWSDMVTLKARMTNYGLPRYRWLTHAWNFFQREFKCCGVVYFTDWLEMTEMDWPPDSCCVREFPGCSKQAHQEDLSDLYQEGCGKKMYSFLRGTKQLQVLRFLGISIGVTQILAMILTITLLWALYYDRREPGTDQMMSLKNDNSQHLSCPSVELLKPSLSRIFEHTSMANSFNTHFEMEEL
- binding [3]: binds
